The other results are listed elsewhere or left out.
How the values were obtained:
Assay in all cases: log2 fold change, soluble protein after heating vs DMSO (PISA); higher = thermal stabilisation; K562 cells, 10 uM, 30 min; active = over 0.2 and 3.5 SD of the protein, either way, in both replicates (recomputed)
bafetinib = compound: Cc1ccc(NC(=O)c2ccc(CN3CC[C@H](N(C)C)C3)c(C(F)(F)F)c2)cc1Nc1nccc(-c2cncnc2)n1 [bafetinib]
In short: (§1)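 For each measurement, 10 μM compound was applied for 30 min to K562 cells at 2×10^6 cells/mL. Aliquots were heated for 3 min across 48°C-58°C, pooled, and extracted in PBS with 0.5% NP-40 at 4°C; the supernatant after 21,000xg for 90 min was soluble protein. This was quantified by TMTpro 16plex LC-MS/MS with channel sums equalised, and thermal stability was reported relative to control samples from duplicates, on a log2 fold-change scale.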

Protein sequences, listed by entry. Tags and fused reporters are not part of them. Lines headed by an entry give the natural chain unless they say otherwise; changes in a name come on top.
UniProt P06756, whole entry, looked up: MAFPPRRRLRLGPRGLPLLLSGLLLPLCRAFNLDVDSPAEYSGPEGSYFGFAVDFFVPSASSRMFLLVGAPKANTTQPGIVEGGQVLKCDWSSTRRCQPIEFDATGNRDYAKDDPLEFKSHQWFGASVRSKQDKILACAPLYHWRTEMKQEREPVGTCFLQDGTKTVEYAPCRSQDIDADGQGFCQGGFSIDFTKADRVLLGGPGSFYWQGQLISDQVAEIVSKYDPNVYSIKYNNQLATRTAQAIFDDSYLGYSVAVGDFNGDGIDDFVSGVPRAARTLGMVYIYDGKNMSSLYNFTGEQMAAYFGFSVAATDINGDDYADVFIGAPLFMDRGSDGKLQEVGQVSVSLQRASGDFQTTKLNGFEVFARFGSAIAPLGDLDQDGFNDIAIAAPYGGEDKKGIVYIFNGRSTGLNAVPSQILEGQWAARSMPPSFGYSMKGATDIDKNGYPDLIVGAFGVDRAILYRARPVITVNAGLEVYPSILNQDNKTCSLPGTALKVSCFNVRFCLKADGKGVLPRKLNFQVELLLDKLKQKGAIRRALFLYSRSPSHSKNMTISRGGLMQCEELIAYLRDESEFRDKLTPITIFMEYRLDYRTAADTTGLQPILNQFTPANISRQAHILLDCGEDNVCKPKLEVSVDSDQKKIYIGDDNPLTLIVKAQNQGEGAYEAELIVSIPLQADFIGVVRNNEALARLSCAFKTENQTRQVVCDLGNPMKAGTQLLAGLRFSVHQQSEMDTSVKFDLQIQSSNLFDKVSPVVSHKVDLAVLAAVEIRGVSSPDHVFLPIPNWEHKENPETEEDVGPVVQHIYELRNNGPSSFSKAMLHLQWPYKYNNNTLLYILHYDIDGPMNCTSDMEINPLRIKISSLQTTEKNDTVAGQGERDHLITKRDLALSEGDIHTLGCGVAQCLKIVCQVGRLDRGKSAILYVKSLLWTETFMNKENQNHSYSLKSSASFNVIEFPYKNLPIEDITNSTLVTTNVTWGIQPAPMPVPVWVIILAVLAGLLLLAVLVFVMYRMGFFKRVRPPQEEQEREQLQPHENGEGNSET
UniProt Q9NQX7: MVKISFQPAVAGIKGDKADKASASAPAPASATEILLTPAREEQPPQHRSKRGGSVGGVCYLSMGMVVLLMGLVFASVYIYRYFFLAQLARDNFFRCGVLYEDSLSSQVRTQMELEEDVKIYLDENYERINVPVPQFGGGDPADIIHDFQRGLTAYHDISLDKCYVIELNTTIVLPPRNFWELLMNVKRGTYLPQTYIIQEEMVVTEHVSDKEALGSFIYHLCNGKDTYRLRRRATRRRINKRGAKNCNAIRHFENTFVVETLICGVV
UniProt Q16891: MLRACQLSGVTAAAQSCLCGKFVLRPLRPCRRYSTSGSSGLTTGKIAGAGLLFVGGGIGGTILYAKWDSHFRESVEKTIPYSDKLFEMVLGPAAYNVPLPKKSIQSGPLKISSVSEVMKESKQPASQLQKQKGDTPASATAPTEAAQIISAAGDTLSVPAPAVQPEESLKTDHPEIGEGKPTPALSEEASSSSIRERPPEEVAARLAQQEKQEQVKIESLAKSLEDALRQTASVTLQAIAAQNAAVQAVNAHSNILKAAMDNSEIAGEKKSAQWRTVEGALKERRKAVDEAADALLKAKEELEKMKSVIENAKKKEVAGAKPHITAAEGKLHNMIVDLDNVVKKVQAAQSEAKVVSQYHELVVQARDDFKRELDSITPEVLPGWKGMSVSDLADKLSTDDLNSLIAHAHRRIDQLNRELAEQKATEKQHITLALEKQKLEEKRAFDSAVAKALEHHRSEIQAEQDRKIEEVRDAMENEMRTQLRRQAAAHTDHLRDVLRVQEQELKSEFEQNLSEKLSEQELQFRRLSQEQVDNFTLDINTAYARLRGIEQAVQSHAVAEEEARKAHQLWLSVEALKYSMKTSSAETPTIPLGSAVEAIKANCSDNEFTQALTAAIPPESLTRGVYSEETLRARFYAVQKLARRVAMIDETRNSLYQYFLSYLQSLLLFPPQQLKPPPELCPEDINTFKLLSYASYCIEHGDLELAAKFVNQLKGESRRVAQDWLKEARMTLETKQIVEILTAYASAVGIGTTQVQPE
UniProt P80217: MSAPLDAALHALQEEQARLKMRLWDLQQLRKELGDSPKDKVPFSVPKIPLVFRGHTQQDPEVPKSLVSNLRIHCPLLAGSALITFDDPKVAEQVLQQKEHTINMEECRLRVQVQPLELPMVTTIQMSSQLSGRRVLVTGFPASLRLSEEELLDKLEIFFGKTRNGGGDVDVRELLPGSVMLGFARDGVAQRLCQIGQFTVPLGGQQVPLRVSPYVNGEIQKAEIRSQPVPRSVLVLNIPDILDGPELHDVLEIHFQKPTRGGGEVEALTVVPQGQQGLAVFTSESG
UniProt P51617, whole entry, looked up: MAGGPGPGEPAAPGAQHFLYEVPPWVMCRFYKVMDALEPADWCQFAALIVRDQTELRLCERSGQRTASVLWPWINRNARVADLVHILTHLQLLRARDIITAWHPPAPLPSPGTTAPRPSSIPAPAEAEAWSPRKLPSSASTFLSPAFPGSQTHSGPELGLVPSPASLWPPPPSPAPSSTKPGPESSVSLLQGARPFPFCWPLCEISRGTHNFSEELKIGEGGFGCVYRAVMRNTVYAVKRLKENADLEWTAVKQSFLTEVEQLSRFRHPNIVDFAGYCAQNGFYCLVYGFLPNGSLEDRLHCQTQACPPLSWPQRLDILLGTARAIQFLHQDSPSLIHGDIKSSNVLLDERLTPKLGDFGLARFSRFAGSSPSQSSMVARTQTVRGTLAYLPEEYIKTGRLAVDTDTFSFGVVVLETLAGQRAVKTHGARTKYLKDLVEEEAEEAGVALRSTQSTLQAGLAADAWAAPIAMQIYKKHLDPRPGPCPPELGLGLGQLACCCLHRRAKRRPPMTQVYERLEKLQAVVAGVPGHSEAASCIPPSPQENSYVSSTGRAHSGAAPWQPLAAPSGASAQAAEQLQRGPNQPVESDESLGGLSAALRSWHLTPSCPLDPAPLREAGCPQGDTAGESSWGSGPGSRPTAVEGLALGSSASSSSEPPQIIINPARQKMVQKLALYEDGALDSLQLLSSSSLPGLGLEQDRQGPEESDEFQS
UniProt P38570: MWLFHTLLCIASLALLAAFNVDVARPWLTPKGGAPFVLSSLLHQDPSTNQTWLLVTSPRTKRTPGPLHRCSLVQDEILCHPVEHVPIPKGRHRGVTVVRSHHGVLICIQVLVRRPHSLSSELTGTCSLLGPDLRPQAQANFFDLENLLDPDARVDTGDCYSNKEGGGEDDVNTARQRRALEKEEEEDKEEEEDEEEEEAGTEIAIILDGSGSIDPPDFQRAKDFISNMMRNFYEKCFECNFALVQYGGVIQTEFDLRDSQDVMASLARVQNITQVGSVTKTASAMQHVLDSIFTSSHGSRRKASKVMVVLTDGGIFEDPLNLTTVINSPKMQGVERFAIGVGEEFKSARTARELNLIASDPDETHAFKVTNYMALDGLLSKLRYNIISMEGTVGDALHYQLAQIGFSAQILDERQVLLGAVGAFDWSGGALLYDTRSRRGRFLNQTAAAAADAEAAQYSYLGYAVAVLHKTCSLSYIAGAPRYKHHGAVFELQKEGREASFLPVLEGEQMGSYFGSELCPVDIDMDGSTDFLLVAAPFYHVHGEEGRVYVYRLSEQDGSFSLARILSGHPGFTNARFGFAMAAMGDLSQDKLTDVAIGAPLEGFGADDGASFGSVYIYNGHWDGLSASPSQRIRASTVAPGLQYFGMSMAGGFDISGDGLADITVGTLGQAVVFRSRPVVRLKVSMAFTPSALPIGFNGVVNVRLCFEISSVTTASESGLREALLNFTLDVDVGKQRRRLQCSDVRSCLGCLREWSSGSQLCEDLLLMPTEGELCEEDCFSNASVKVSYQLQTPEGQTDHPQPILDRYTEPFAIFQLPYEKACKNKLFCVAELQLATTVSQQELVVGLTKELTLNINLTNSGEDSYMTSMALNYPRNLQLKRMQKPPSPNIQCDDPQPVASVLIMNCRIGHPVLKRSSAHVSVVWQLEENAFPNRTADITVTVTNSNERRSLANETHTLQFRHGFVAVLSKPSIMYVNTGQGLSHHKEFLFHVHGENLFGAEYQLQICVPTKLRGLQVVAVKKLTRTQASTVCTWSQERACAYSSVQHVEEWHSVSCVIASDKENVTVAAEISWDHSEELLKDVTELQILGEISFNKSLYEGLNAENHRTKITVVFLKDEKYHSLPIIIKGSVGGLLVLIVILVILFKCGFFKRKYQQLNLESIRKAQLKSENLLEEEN
UniProt P08648, whole entry, looked up: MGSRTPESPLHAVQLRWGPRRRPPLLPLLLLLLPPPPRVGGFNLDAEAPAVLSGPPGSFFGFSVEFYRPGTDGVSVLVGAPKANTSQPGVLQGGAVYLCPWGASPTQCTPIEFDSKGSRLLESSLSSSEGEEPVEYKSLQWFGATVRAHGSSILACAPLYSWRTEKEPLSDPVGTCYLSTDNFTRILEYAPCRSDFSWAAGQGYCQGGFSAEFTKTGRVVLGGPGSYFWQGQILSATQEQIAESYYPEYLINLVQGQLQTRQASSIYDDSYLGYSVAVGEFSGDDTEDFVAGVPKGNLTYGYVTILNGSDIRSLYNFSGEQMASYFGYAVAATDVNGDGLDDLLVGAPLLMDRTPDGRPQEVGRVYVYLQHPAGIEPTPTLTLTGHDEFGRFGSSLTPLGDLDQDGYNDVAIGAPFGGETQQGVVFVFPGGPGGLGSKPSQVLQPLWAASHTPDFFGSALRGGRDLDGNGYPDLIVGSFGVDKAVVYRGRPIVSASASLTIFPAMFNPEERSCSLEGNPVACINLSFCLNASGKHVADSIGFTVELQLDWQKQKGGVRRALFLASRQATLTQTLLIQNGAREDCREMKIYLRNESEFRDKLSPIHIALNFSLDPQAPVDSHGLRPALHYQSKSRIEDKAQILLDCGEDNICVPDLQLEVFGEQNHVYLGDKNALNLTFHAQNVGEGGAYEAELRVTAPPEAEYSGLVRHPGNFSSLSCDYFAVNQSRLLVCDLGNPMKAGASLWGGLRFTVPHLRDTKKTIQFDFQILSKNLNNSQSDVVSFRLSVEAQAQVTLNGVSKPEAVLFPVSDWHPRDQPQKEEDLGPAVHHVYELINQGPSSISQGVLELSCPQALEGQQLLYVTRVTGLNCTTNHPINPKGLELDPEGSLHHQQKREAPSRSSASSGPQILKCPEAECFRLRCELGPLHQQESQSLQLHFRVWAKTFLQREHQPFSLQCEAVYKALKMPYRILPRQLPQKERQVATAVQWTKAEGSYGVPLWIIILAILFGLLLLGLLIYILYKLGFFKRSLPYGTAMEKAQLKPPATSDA
UniProt P14316: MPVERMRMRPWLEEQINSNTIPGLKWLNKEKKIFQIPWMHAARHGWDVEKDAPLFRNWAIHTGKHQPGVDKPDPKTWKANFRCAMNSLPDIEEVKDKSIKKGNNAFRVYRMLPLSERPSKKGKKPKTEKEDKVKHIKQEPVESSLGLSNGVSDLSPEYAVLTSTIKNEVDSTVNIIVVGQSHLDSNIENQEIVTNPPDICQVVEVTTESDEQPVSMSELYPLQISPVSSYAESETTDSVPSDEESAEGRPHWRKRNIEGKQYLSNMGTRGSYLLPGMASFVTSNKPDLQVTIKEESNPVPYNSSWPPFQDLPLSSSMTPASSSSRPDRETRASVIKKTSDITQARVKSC
UniProt Q9NV31: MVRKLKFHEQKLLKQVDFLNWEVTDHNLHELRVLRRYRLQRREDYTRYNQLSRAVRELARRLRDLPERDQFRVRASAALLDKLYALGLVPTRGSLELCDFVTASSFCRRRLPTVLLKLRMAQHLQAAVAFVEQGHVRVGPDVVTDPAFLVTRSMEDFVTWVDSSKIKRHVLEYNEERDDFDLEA
UniProt Q08334: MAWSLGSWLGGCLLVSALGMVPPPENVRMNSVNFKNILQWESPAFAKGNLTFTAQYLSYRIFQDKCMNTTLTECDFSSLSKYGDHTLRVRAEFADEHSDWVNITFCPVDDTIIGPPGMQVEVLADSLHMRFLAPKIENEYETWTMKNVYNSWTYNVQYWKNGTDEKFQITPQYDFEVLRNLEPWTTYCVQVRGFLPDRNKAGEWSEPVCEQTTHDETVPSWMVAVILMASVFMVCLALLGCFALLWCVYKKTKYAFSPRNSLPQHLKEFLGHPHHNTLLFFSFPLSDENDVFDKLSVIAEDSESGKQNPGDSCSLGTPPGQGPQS
UniProt P05161, whole entry, looked up: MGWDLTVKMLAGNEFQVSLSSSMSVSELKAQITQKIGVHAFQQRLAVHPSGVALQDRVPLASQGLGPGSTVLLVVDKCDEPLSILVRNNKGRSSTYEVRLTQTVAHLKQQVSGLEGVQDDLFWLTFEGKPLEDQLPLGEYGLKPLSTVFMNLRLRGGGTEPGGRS
UniProt Q14116, whole entry, looked up: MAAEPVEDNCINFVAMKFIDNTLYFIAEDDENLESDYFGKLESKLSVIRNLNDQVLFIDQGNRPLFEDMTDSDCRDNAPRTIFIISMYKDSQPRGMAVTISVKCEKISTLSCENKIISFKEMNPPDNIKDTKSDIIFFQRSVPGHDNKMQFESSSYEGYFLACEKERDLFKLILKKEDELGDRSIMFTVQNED

[1] = compound: Cc1cccc(CC(=O)N2CCc3c2ccc(-c2cn(C)c4ncnc(N)c24)c3F)n1
In short: as §1

nilotinib = compound: Cc1cn(-c2cc(NC(=O)c3ccc(C)c(Nc4nccc(-c5cccnc5)n4)c3)cc(C(F)(F)F)c2)cn1 [nilotinib]
In short: as §1

[2] = compound: Cc1nc(Nc2n[nH]c3c2CN(C(=O)N[C@H](CN(C)C)c2ccccc2)C3(C)C)c2sccc2n1
In short: as §1

dasatinib = compound: Cc1nc(Nc2ncc(C(=O)Nc3c(C)cccc3Cl)s2)cc(N2CCN(CCO)CC2)n1 [dasatinib]
In short: as §1

[3] = compound: Cc1ncc(-c2ccnc(Nc3ccc(S(C)(=O)=O)cc3)n2)n1C(C)C
In short: as §1

[4] = compound: Cn1cc(-c2ccc3c(c2)CCN3C(=O)Cc2cccc(C(F)(F)F)c2)c2c(N)ncnc21
In short: as §1

[5] = compound: Cn1cc(-c2ccc3nnc(C(F)(F)c4ccc5ncccc5c4)n3n2)cn1
In short: as §1

tipifarnib = compound: Cn1cncc1[C@@](N)(c1ccc(Cl)cc1)c1ccc2c(c1)c(-c1cccc(Cl)c1)cc(=O)n2C [tipifarnib]
In short: as §1

mubritinib = compound: FC(F)(F)c1ccc(/C=C/c2nc(COc3ccc(CCCCn4ccnn4)cc3)co2)cc1 [mubritinib]
In short: as §1

[6] = compound: NC(=O)Nc1cc(-c2cccc(F)c2)sc1C(=O)N[C@H]1CCCNC1
In short: as §1

[7] = compound: NC(=O)c1cnc(N[C@@H]2CCCC[C@@H]2N)nc1Nc1cccc(-n2nccn2)c1
In short: as §1

[8] = compound: NC1(c2ccc(-c3nc4ccn5c(=O)[nH]nc5c4cc3-c3ccccc3)cc2)CCC1
In short: as §1

[9] = compound: NCC(=O)Nc1ccc(-n2nc(C(F)(F)F)cc2-c2ccc3c(ccc4ccccc43)c2)cc1
In short: as §1

entinostat = compound: Nc1ccccc1NC(=O)c1ccc(CNC(=O)OCc2cccnc2)cc1 [entinostat]
In short: as §1

vorinostat = compound: O=C(CCCCCCC(=O)Nc1ccccc1)NO [vorinostat]
In short: as §1

citarinostat = compound: O=C(CCCCCCNC(=O)c1cnc(N(c2ccccc2)c2ccccc2Cl)nc1)NO [citarinostat]
In short: as §1

silmitasertib = compound: O=C(O)c1ccc2c(c1)nc(Nc1cccc(Cl)c1)c1ccncc12 [silmitasertib]
In short: as §1

[10] = compound: O=C1NC(=O)C(c2cnc3ccccn23)=C1c1cn2c3c(cc(F)cc13)CN(C(=O)N1CCCCC1)CC2
In short: as §1

[11] = compound: c1cc(OCCN2CCCCC2)cc(-c2n[nH]c3ccc(-c4nnc[nH]4)cc23)c1
In short: as §1

Target | log2 fold change (bafetinib) | log2 fold change [1] | log2 fold change (nilotinib) | log2 fold change [2] | log2 fold change (dasatinib) | log2 fold change [3] | log2 fold change [4] | log2 fold change [5] | log2 fold change (tipifarnib) | log2 fold change (mubritinib) | log2 fold change [6] | log2 fold change [7] | log2 fold change [8] | log2 fold change [9] | log2 fold change (entinostat) | log2 fold change (vorinostat) | log2 fold change (citarinostat) | log2 fold change (silmitasertib) | log2 fold change [10] | log2 fold change [11]
ITGAV (UniProt P06756) | inactive: -0.052 | inactive: 0 | inactive: -0.016 | inactive: -0.006 | inactive: 0.016 | inactive: 0 | inactive: 0.028 | inactive: 0.032 | inactive: 0.057 | inactive: 0.05 | inactive: 0 | inactive: 0.024 | inactive: -0.003 | inactive: 0.011 | inactive: -0.017 | inactive: 0.006 | inactive: 0.003 | inactive: 0.018 | inactive: -0.005 | inactive: -0.081
IGFBP2 (UniProt P18065) | inactive: -0.512 | inactive: 0.026 | inactive: -0.034 | inactive: 0.142 | inactive: -0.1 | inactive: 0.17 | inactive: 0.17 | inactive: -0.095 | inactive: -0.1 | inactive: -0.135 | inactive: 0.026 | inactive: -0.043 | inactive: -0.242 | inactive: -0.037 | inactive: 0.04 | inactive: 0.351 | inactive: -0.068 | inactive: 0.267 | inactive: -0.143 | inactive: 0.064
ITM2C (UniProt Q9NQX7) | inactive: -0.064 | inactive: -0.127 | inactive: 0.099 | inactive: -0.018 | inactive: 0.024 | inactive: 0.127 | inactive: 0.09 | inactive: 0.038 | inactive: 0.039 |  | inactive: -0.309 | inactive: -0.009 |  | inactive: -0.133 | inactive: 0.164 | inactive: -0.032 |  |  | inactive: 0.029 | 
IMMT isoform 4 (UniProt Q16891) | inactive: -0.119 | inactive: 0.018 | inactive: -0.038 | inactive: 0.004 | inactive: -0.019 | inactive: 0.003 | inactive: 0.015 | inactive: 0.018 | inactive: -0.03 | inactive: 0.012 | inactive: -0.022 | inactive: -0.083 | inactive: -0.132 | inactive: -0.056 | inactive: 0.021 | inactive: 0.008 | inactive: 0.007 | inactive: -0.038 | inactive: -0.031 | inactive: -0.035
IFI35 isoform 2 (UniProt P80217) | inactive: -0.037 | inactive: 0 | inactive: 0.027 | inactive: 0.006 | inactive: -0.022 | inactive: -0.027 | inactive: 0.082 | inactive: 0.032 | inactive: -0.03 | inactive: 0.048 | inactive: -0.018 | inactive: 0.007 | inactive: -0.063 | inactive: 0.027 | inactive: -0.014 | inactive: 0.011 | inactive: -0.006 | inactive: -0.099 | inactive: -0.024 | inactive: -0.053
IDH3A (UniProt P50213) | inactive: -0.016 | inactive: 0.021 | inactive: -0.027 | inactive: -0.006 | inactive: -0.005 | inactive: -0.024 | inactive: 0.045 | inactive: 0.021 | inactive: -0.001 | inactive: 0.06 | inactive: 0 | inactive: -0.033 | inactive: -0.062 | inactive: -0.005 | inactive: -0.025 | inactive: -0.029 | inactive: 0.023 | inactive: -0.034 | inactive: -0.021 | inactive: 0.011
IRAK1 (UniProt P51617) | inactive: 0.166 | inactive: 0.174 | inactive: -0.049 | inactive: -0.178 |  | inactive: 0.097 |  | inactive: -0.164 |  | inactive: 0.001 | inactive: 0.229 |  | inactive: 0.003 |  | inactive: -0.216 | inactive: 0.294 | inactive: -0.063 | inactive: 0.057 | inactive: 0.102 | inactive: -0.259
ITGAE (UniProt P38570) | inactive: -0.203 | inactive: -0.209 | inactive: -0.045 | inactive: 0.05 |  | inactive: 0.017 | inactive: 0.066 | inactive: 0.022 | inactive: 0.004 | inactive: 0.131 | inactive: -0.179 |  | inactive: -0.009 | inactive: 0.094 | inactive: -0.185 | inactive: 0.052 |  | inactive: -0.033 | inactive: -0.077 | 
ITGA5 (UniProt P08648) | inactive: 0.008 | inactive: -0.026 | inactive: 0.069 | inactive: -0.002 | inactive: 0.018 | inactive: -0.007 | inactive: 0.045 | inactive: -0.003 | inactive: -0.021 | inactive: 0.027 | inactive: -0.028 | inactive: 0.073 | inactive: 0.033 | inactive: 0.08 | inactive: -0.058 | inactive: -0.049 | inactive: 0.002 | inactive: -0.049 | inactive: -0.015 | inactive: -0.039
ISCA1 isoform 2 (UniProt Q9BUE6) | inactive: -0.075 | inactive: 0.031 | inactive: 0.031 | inactive: -0.012 | inactive: -0.059 | inactive: -0.053 | inactive: 0.039 |  | inactive: -0.008 | inactive: 0.078 | inactive: -0.058 | inactive: 0.04 | inactive: -0.115 | inactive: -0.147 | inactive: 0.016 | inactive: 0.092 | inactive: 0.032 | inactive: 0.083 | inactive: -0.021 | inactive: 0.034
IDH2 (UniProt P48735) | inactive: 0.029 | inactive: -0.002 | inactive: -0.021 | inactive: 0.051 | inactive: -0.02 | inactive: 0.018 | inactive: 0.08 | inactive: 0.048 | inactive: -0.027 | inactive: -0.011 | inactive: -0.085 | inactive: 0.004 | inactive: -0.029 | inactive: 0 | inactive: 0.014 | inactive: -0.007 | inactive: 0.021 | inactive: 0.008 | inactive: -0.033 | inactive: -0.002
IRF2 (UniProt P14316) | inactive: -0.036 | inactive: 0.127 | inactive: 0.034 | inactive: -0.035 |  | inactive: 0.011 | inactive: -0.058 | inactive: 0.013 | inactive: 0.05 | inactive: 0.02 | inactive: 0.01 | inactive: -0.036 | inactive: -0.072 | inactive: 0.092 | inactive: -0.084 | inactive: 0.087 |  | inactive: 0.02 |  | 
IMP3 (UniProt Q9NV31) | inactive: -0.063 | inactive: 0.024 | inactive: 0.054 | inactive: -0.063 | inactive: 0.604 | inactive: 0.045 | inactive: 0.053 | inactive: 0.045 | inactive: 0.211 | inactive: 0.168 | inactive: 0.027 | inactive: 0.358 | inactive: 0.049 | inactive: -0.355 | inactive: 0.58 | inactive: 0.033 | inactive: 0.105 | inactive: -0.201 | inactive: -0.018 | inactive: 0.018
IFT74 (UniProt Q96LB3) | inactive: -0.095 | inactive: 0.015 | inactive: 0.166 | inactive: 0.063 | inactive: 0.057 | inactive: 0.008 | inactive: 0.015 | inactive: -0.053 | inactive: -0.052 | inactive: 0.186 | inactive: 0.035 | inactive: 0.009 | inactive: 0.135 | inactive: 0.045 | inactive: -0.091 | inactive: 0.101 | inactive: 0.171 | inactive: -0.187 | inactive: -0.021 | inactive: 0.06
IL10RB (UniProt Q08334) | inactive: -0.079 | inactive: -0.031 | inactive: 0.026 | inactive: 0.151 | inactive: 0.068 | inactive: 0.105 |  |  | inactive: 0.126 |  | inactive: -0.113 | inactive: -0.121 |  | inactive: -0.031 | active: -0.431 | inactive: 0.109 | inactive: 0.055 |  | inactive: 0.062 | inactive: -0.026
ISG15 (UniProt P05161) | inactive: 0.005 | inactive: 0.041 | inactive: -0.031 | inactive: -0.109 | inactive: -0.071 | inactive: 0.013 | inactive: -0.018 | inactive: 0.07 | inactive: 0.018 | inactive: 0.059 | inactive: 0.007 | inactive: -0.129 | inactive: -0.161 | inactive: -0.156 | inactive: 0.055 | inactive: 0.072 | inactive: 0.093 | inactive: 0.096 | inactive: -0.016 | inactive: 0.006
IL18 (UniProt Q14116) | inactive: -0.045 | inactive: -0.014 | inactive: 0.017 | inactive: 0.028 | inactive: 0.006 | inactive: 0.016 | inactive: 0.038 | inactive: -0.029 | inactive: -0.01 | inactive: 0.036 | inactive: 0.005 | inactive: 0.012 | inactive: 0.028 | inactive: -0.012 | inactive: -0.017 | inactive: 0.017 | inactive: 0.01 | inactive: -0.04 | inactive: -0.005 | inactive: 0.002

2 records drawn at random from the list so far, as already listed:
Target | log2 fold change (bafetinib) | log2 fold change [1] | log2 fold change (nilotinib) | log2 fold change [2] | log2 fold change (dasatinib) | log2 fold change [3] | log2 fold change [4] | log2 fold change [5] | log2 fold change (tipifarnib) | log2 fold change (mubritinib) | log2 fold change [6] | log2 fold change [7] | log2 fold change [8] | log2 fold change [9] | log2 fold change (entinostat) | log2 fold change (vorinostat) | log2 fold change (citarinostat) | log2 fold change (silmitasertib) | log2 fold change [10] | log2 fold change [11]
ISG15 (UniProt P05161) | inactive: 0.005 | inactive: 0.041 | inactive: -0.031 | inactive: -0.109 | inactive: -0.071 | inactive: 0.013 | inactive: -0.018 | inactive: 0.07 | inactive: 0.018 | inactive: 0.059 | inactive: 0.007 | inactive: -0.129 | inactive: -0.161 | inactive: -0.156 | inactive: 0.055 | inactive: 0.072 | inactive: 0.093 | inactive: 0.096 | inactive: -0.016 | inactive: 0.006
ITGAE (UniProt P38570) | inactive: -0.203 | inactive: -0.209 | inactive: -0.045 | inactive: 0.05 |  | inactive: 0.017 | inactive: 0.066 | inactive: 0.022 | inactive: 0.004 | inactive: 0.131 | inactive: -0.179 |  | inactive: -0.009 | inactive: 0.094 | inactive: -0.185 | inactive: 0.052 |  | inactive: -0.033 | inactive: -0.077 | 

Reference: the supplement of paper PMC10849652
